The source of these data is publication PMC8850466.

Results are given in words; binding and its absence hold for the method and conditions named. In cells and extracts the contact can be indirect. Some binding calls cover weakened binding; strength is not graded here. Sequences can lack the tags named with a protein.

This test concerns the target T1, PARK7-Flag (mouse PARK7) (mouse) (UniProt Q99LX0).
T1 sequence: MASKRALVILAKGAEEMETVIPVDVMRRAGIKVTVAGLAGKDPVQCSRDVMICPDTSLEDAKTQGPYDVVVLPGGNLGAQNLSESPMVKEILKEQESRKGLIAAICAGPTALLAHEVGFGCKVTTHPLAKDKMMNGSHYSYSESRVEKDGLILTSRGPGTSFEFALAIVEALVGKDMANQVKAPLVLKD
Briefly: co-IP; LONP1-GFP and PARK7-Flag cotransfected in HEK293T cells; whole lysate 48 h after transfection (50 mM Tris pH 7.5, 150 mM NaCl, 2 mM EDTA, 1.5% NP40); M2 anti-FLAG antibody and protein G agarose beads; immunoblot.

B1: LONP1-GFP (mouse Lon protease homolog, mitochondrial) (enzyme, UniProt Q8CGK3 66-949)
chain: LWDSGNRGGSDETSEGGAEDGATASTGEGPVVTALAPMTVPDVFPHLPLIAITRNPVFPRFIKIVEVKNKKLVELLRRKVRLAQPYVGVFLKRDDNNESDVVESLDEIYHTGTFAQIHEMQDLGDKLRMIVTGHRRIHISRQLEVEPEGLEPEAEKQKSRRKLKRGKKEVEDELGPKPQLEMVTEAATDTSKEVLMVEVENVAHEDFQVTEEVKALTAEIVKTIRDIIALNPLYRESVLQMMQAGQRVVDNPIYLSDMGAALTGAESHELQDVLEETNILKRLYKALSLLKKEFELSKLQQRLGREVEEKIKQTHRKYLLQEQLKIIKKELGLEKDDKDAIEEKFRERLRELVVPKHVMDVVDEELSKLALLDNHSSEFNVTRNYLDWLTSIPWGRQSDENLDLARAQAVLEEDHYGMEDVKKRVLEFIAVSQLRGSTQGKILCFHGPPGVGKTSIARSIARALGREYFRFSVGGMTDVAEIKGHRRTYVGAMPGKIIQCLKKTKTENPLVLIDEVDKIGRGYQGDPSSALLELLDPEQNANFLDHYLDVPVDLSKVLFICTANVIDTIPEPLRDRMEMINVSGYVAQEKLAIAERYLVPQARTLCGLDESKAQLSAAVLTLLIKQYCRESGVRNLQKQVEKVLRKAAYKIVSGEAQTVQVTPENLQDFVGKPVFTVERMYEVTPPGVVMGLAWTAMGGSTLFVETSLRRPQPSGSKEDKDGSLEVTGQLGDVMKESARIAYTYARAFLMEQDPENDFLVTSHIHLHVPEGATPKDGPSAGCTIVTALLSLALGQPVLQNLAMTGEVSLTGKVLPVGGIKEKTIAAKRAGVTCIILPAENRKDYSDLAPFITEGLEVHFVEHYRDIFPIAFPRREHREALAVER
B1: the binding result was “binds”.
